Results on one molecule are retold here after publication doi:10.1101/755322 (bioRxiv, 2019).

These are yes or no findings as the source states them, for the method shown.

In the assay the target is T1, hCCL5 F12A (human), P13501.
T1 chain: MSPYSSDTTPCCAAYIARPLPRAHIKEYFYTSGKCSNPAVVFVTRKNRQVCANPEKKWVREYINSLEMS
Nature of the assay: NMR 1H-15N HSQC spectra. The following applies: remark: other sources report otherwise.

B1: hCCL5 F12A, P13501 24-91 (protein)
chain: T1 chain
For B1, the binding entry is on record as “no binding”.
